Source: PubChem BioAssay AID330 (DTP/NCI, 2004)
The list shows only some results of the screen, not a fair sample: it gathers tests that were run many times, whatever their T/C, doses with no T/C, and many T/C values between a quarter and a half above the control. Other doses and runs of a compound stand elsewhere. T/C: endpoint of the treated group in % of that of the vehicle group. Some entries give survivors of the animals treated and no T/C: the source files T/C as zero there, which appears to mark a toxic dose or a test without result, not a measured value. Some survivor counts are full or nearly so, which does not show that the dose was tolerated: the source hardly ever lists a survival T/C far under the control, and the zero likely stands for such cases as well. Counts of survivors are from the toxicity check (mostly the fifth day) where no day follows; animals may have died later. Schedule codes are those of the source, read here as Q, the interval in days (D) or hours (H), X, the number of doses. Some entries were tested several times; the values are given in rising order. For survival time, this PubChem deposit counts one and a half times the control or more as active, and values a quarter to a half above the control carry no call in these data; other NCI protocols may use other cut-offs. Brackets with × count equal records among those shown. Some T/C values carry the count of animals alive at the toxicity check (mostly the fifth day); without a count, all were alive then.

Tested on: P388 leukemia ip, CD2F1 mice, survival T/C
Experiment: NCI In Vivo Anticancer Drug Screen. Data for tumor model P388 Leukemia (intraperitoneal) in CD2F1 (CDF1) mice
Conditions: T/C endpoint: median survival time, higher T/C = longer survival
[1] = dose: 200.0 mg/kg/injection, schedule: Q04DX003 (ip), vehicle: Klucel (hydroxypropylcellulose) (HPC)
[2] = dose: 400.0 mg/kg/injection, schedule: Q04DX003 (ip), vehicle: Klucel (hydroxypropylcellulose) (HPC)
[3] = dose: 240.0 mg/kg/injection, schedule: Q01DX005 (ip), vehicle: saline with Tween-80
[4] = dose: 1.56 mg/kg/injection, schedule: Q01DX009 (ip), vehicle: saline
[5] = dose: 6.25 mg/kg/injection, schedule: Q01DX009 (ip), vehicle: saline
[6] = dose: 200.0 mg/kg/injection, schedule: Q01DX005 (ip), vehicle: saline with Tween-80
[7] = dose: 400.0 mg/kg/injection, schedule: Q04DX002 (ip), vehicle: saline with Tween-80
[8] = dose: 100.0 mg/kg/injection, schedule: Q01DX009 (ip), vehicle: Klucel (hydroxypropylcellulose) (HPC)
[9] = dose: 240.0 mg/kg/injection, schedule: Q01DX005 (ip), vehicle: Klucel (hydroxypropylcellulose) (HPC)
[10] = dose: 50.0 mg/kg/injection, schedule: Q01DX005 (ip), vehicle: saline + Tween-80 + alcohol

Compound: Nc1cc2c(c[n+](CCCCCCCCC[n+]3cc4c5ccccc5c(N)cc4c4ccccc43)c3ccccc23)c2ccccc12
- T/C (dose: 0.39 mg/kg/injection, schedule: Q04DX003 (ip), vehicle: other): 145 % of control
- T/C (dose: 0.78 mg/kg/injection, schedule: Q04DX003 (ip), vehicle: other): 148 % of control
- T/C (dose: 1.56 mg/kg/injection, schedule: Q04DX003 (ip), vehicle: other): 141 % of control
- T/C (dose: 3.13 mg/kg/injection, schedule: Q04DX003 (ip), vehicle: other): 148 % of control
- survivor count (dose: 25.0 mg/kg/injection, schedule: Q04DX003 (ip), vehicle: other): 5 of 6 and 6 of 6

Compound: CCCCC/C=C/C/C=C\CCCCCCCC(=O)NC1CC(O)C(O)NC(=O)C2C(O)C(C)CN2C(=O)C(C(C)O)NC(=O)C(C(O)C(O)c2ccc(O)cc2)NC(=O)C2CC(O)CN2C(=O)C(C(C)O)NC1=O (stereo not given)
- survivor count (dose: 0.13 mg/kg/injection, schedule: Q01DX009 (ip), vehicle: lactate): 6 of 6
- survivor count (dose: 1.0 mg/kg/injection, schedule: Q01DX009 (ip), vehicle: lactate): 2 of 6
- survivor count (dose: 8.5 mg/kg/injection, schedule: Q01DX009 (ip), vehicle: lactate): 4 of 6
- survivor count (dose: 17.0 mg/kg/injection, schedule: Q01DX009 (ip), vehicle: lactate): 0 of 6
- survivor count (dose: 34.0 mg/kg/injection, schedule: Q01DX009 (ip), vehicle: lactate): 0 of 6
- survivor count (dose: 68.0 mg/kg/injection, schedule: Q01DX009 (ip), vehicle: lactate): 0 of 6

Compound: Cc1nn(CCO)c(C)c1N=[N+]([O-])c1c(C)nn(CCO)c1C
- survivor count [1]: 1 of 6

Compound: O=P(O)(O)OCC1(O)OCC(O)C(O)C1O (stereo not given)
- survivor count (dose: 100.0 mg/kg/injection, schedule: Q01DX005 (ip), vehicle: saline): 3 of 6
- survivor count (dose: 200.0 mg/kg/injection, schedule: Q01DX005 (ip), vehicle: saline): 0 of 6

Compound: CCc1cccc2c(NCCCCCCNc3c4ccccc4nc4c(CC)cccc34)c3ccccc3nc12
- T/C (dose: 10.0 mg/kg/injection, schedule: Q01DX009 (ip), vehicle: other): 128 % of control
- survivor count (dose: 20.0 mg/kg/injection, schedule: Q01DX009 (ip), vehicle: other): 6 of 6

Compound: CCOP(=O)(O)C1CCCC(C)[N-]1.CCOP(=O)(O)C1CCCC(C)[N-]1.[Mn+2] (stereo not given)
- survivor count [2]: 1 of 6

Compound: NC(=S)N/N=C/c1ccncn1
- survivor count (dose: 25.0 mg/kg/injection, schedule: Q04DX003 (ip), vehicle: saline with Tween-80): 3 of 6
- survivor count (dose: 50.0 mg/kg/injection, schedule: Q04DX003 (ip), vehicle: saline with Tween-80): 3 of 6
- survivor count (dose: 75.0 mg/kg/injection, schedule: Q04DX003 (ip), vehicle: Klucel (hydroxypropylcellulose) (HPC)): 5 of 6
- survivor count (dose: 100.0 mg/kg/injection, schedule: Q04DX003 (ip), vehicle: Klucel (hydroxypropylcellulose) (HPC)): 1 of 6
- survivor count [1]: 0 of 6
- survivor count [2]: 0 of 6

Compound: Cc1cc2nc(C/C(=N/O)c3ccncc3)c(C/C(=N/O)c3ccncc3)nc2cc1C
- survivor count [3]: 6 of 6

Compound: COc1ccc(CC(N)C(=O)OCc2ccccc2)cc1N(CCCl)CCCl (stereo not given)
- T/C [4]: 97, 98 [5 of 6 alive], 100, 107 % of control
- survivor count [4]: 5 of 6
- T/C (dose: 3.12 mg/kg/injection, schedule: Q01DX009 (ip), vehicle: saline): 94, 98, 101, 104 % of control (2×)
- T/C [5]: 96, 97, 100, 104 % of control
- survivor count [5]: 6 of 6
- T/C (dose: 12.5 mg/kg/injection, schedule: Q01DX009 (ip), vehicle: saline): 97, 98, 101, 103, 108 % of control
- T/C (dose: 12.5 mg/kg/injection, schedule: Q01DX009 (ip), vehicle: suspension in saline): 148 % of control [5 of 6 alive]

Compound: CCCCCCCCCCCN(C)C
- survivor count [6]: 0 of 6

Compound: COC(=O)c1cn[nH]c1CC#N
- survivor count [7]: 0 of 6

Compound: COc1ccc2c(c1)CCC1=C2N=CN2CCN=C12
- survivor count (dose: 200.0 mg/kg/injection, schedule: Q04DX002 (ip), vehicle: saline with Tween-80): 0 of 6
- survivor count [7]: 0 of 6

Compound: O=[N+]([O-])c1ccc(Sc2ccncn2)c([N+](=O)[O-])c1
- T/C (dose: 50.0 mg/kg/injection, schedule: Q01DX009 (ip), vehicle: saline): 127 % of control
- T/C (dose: 100.0 mg/kg/injection, schedule: Q01DX009 (ip), vehicle: saline): 125 % of control [5 of 6 alive]
- survivor count (dose: 200.0 mg/kg/injection, schedule: Q01DX009 (ip), vehicle: saline): 0 of 6

Compound: CCCNC(=O)ON1C(=O)C2C3C=CC(C3)C2C1=O (stereo not given)
- survivor count (dose: 50.0 mg/kg/injection, schedule: Q01DX005 (ip), vehicle: Klucel (hydroxypropylcellulose) (HPC)): 5 of 5
- survivor count (dose: 100.0 mg/kg/injection, schedule: Q01DX005 (ip), vehicle: Klucel (hydroxypropylcellulose) (HPC)): 3 of 4
- survivor count (dose: 200.0 mg/kg/injection, schedule: Q01DX005 (ip), vehicle: Klucel (hydroxypropylcellulose) (HPC)): 4 of 5

Compound: CCCCCCCCCCCC(=O)NC1CC(O[C@H]2C[C@](O)(C(C)=O)Cc3c(O)c4c(c(O)c32)C(=O)c2c(OC)cccc2C4=O)OC(C)C1O (stereo not given in full)
- T/C (dose: 1.5 mg/kg/injection, schedule: Q01DX009 (ip), vehicle: other): 138 % of control
- T/C (dose: 3.0 mg/kg/injection, schedule: Q01DX009 (ip), vehicle: other): 134 % of control
- T/C (dose: 64.0 mg/kg/injection, schedule: Q04DX003 (ip), vehicle: other): 133 % of control

Compound: O=C1CSc2ccccc2N1
- survivor count [8]: 5 of 6

Compound: N/C(=C\c1nc2ccccc2nc1-c1ccccc1)c1ccccc1Cl
- survivor count [9]: 6 of 6

Compound: C/C(=N\NC(=S)N1CCCC1)c1cccc(C)n1
- T/C [10]: 126 % of control
- survivor count [10]: 0 of 6
- survivor count (dose: 100.0 mg/kg/injection, schedule: Q01DX005 (ip), vehicle: saline + Tween-80 + alcohol): 0 of 6 and 2 of 6
- survivor count (dose: 200.0 mg/kg/injection, schedule: Q01DX005 (ip), vehicle: saline + Tween-80 + alcohol): 0 of 6

Compound: CCc1cccc(C)c1NC(=O)/C(Cl)=C(\Cl)C(=O)O
- survivor count [3]: 0 of 6

Compound: CN(Cc1cnc2nc(N)nc(N)c2n1)c1ccc(C(=O)NC(CCC(=O)NC(CCC(=O)O)C(=O)O)C(=O)O)cc1 (stereo not given)
- survivor count (dose: 1.56 mg/kg/injection, schedule: Q01DX009 (ip), vehicle: Klucel (hydroxypropylcellulose) (HPC)): 0 of 6
- survivor count (dose: 3.12 mg/kg/injection, schedule: Q01DX009 (ip), vehicle: Klucel (hydroxypropylcellulose) (HPC)): 0 of 6
- survivor count (dose: 6.25 mg/kg/injection, schedule: Q01DX009 (ip), vehicle: Klucel (hydroxypropylcellulose) (HPC)): 0 of 6 and 6 of 6
- survivor count (dose: 12.5 mg/kg/injection, schedule: Q01DX009 (ip), vehicle: Klucel (hydroxypropylcellulose) (HPC)): 0 of 6, 2 of 6, 4 of 6, 5 of 6
- survivor count (dose: 25.0 mg/kg/injection, schedule: Q01DX009 (ip), vehicle: Klucel (hydroxypropylcellulose) (HPC)): 5 of 6
- survivor count (dose: 50.0 mg/kg/injection, schedule: Q01DX009 (ip), vehicle: Klucel (hydroxypropylcellulose) (HPC)): 5 of 6
- survivor count [8]: 6 of 6

Compound: COC1=CC(=O)C(=O)C(C(C)(C)C)=C1
- survivor count (dose: 60.0 mg/kg/injection, schedule: Q01DX005 (ip), vehicle: Klucel (hydroxypropylcellulose) (HPC)): 0 of 6 and 3 of 6
- survivor count (dose: 120.0 mg/kg/injection, schedule: Q01DX005 (ip), vehicle: Klucel (hydroxypropylcellulose) (HPC)): 0 of 6
- survivor count [9]: 0 of 6

Compound: CCCOc1ccc(C(N)=S)cc1
- survivor count [8]: 6 of 6
- survivor count (dose: 200.0 mg/kg/injection, schedule: Q01DX009 (ip), vehicle: Klucel (hydroxypropylcellulose) (HPC)): 0 of 6

Compound: Cc1cc2nc3ccc(N(C)C)cc3nc2cc1N
- survivor count (dose: 100.0 mg/kg/injection, schedule: Q01DX005 (ip), vehicle: saline with Tween-80): 5 of 5
- survivor count [6]: 0 of 5
